Data source: PubChem BioAssay AID1259308 (NCATS, 2017)
This is one part, drawn at random, of about 59,000 deposited reagents. About 1,510 of them (2.6%) were called active. 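Calls use total luciferase alone and ignore viability, so some active siRNAs may act by altering cell number.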 Unmarked entries are inactive. Not all columns of the deposit are shown.

Assay: 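Genes whose loss raises luciferase production in HEK293 cells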 (primary screen)
Cell system: human HEK293 embryonic kidney cells stably expressing firefly luciferase (HEK-CMV-Luc2-Hygro)
Reagents: single siRNA against human genes, 0.8 pmol siRNA per well
Time to read-out: 72 h
Read-out: 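Reporter luminescence and viable-cell signal on separate replicate plates, given as percent of non-targeting control and median/MAD z-scores, plus per-cell luciferase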
Direction: total luciferase, z-score: higher = more reporter protein produced
Active means: 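Active when the median/MAD z-score for overall luciferase is greater than 3; a gene was taken forward for validation with new siRNAs if at least two of its three siRNAs passed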
Meaning of the calls: active = raised luciferase; inactive = no rise

Against FLG [SID160766341], the entry reads total luciferase, z-score -1.21.
FLG [SID160766352] showed total luciferase, z-score -1.36.
After knock-down of FLG [SID160766362], the screen gave total luciferase, z-score 0.723.
After knock-down of D2HGDH [SID160726633] the results were total luciferase, z-score -0.215.
Depletion of D2HGDH [SID160771670] came out at: total luciferase, z-score -0.796.
With knock-down of D2HGDH [SID160771671], the screen gave total luciferase, z-score -2.26.
Depletion of MKNK2 [SID160773811] gave: total luciferase, z-score 1.13.
Against MKNK2 [SID160773821], the entry reads total luciferase, z-score 3.62 (active).
For MKNK2 [SID160773829], the entry reads total luciferase, z-score 0.051.
For ATP1A3 [SID160721334], the entry reads total luciferase, z-score 0.365.
Against ATP1A3 [SID160721345] the deposit lists total luciferase, z-score 0.686.
ATP1A3 [SID160721356] gave total luciferase, z-score -0.823.
Silencing of SPINT1 [SID160717268] resulted in: total luciferase, z-score -0.894.
For SPINT1 [SID160717269] the deposit lists total luciferase, z-score -0.0617.
SPINT1 [SID160717270] showed total luciferase, z-score 0.0811.
CASP1 [SID160736539] showed total luciferase, z-score -1.59.
Against CASP1 [SID160736550], the entry reads total luciferase, z-score -1.65.
Silencing of CASP1 [SID160736561] came out at: total luciferase, z-score -0.463.
NUDT2 [SID160718095] showed total luciferase, z-score -0.439.
With knock-down of NUDT2 [SID160718106], the record shows total luciferase, z-score 0.751.
Silencing of NUDT2 [SID160723653] came out at: total luciferase, z-score -0.223.
SMURF2 [SID160731736] gave total luciferase, z-score 0.872.
With knock-down of SMURF2 [SID160747894], the screen gave total luciferase, z-score -0.684.
SMURF2 [SID160747895] scored total luciferase, z-score 0.237.
With knock-down of DDX49 [SID160741920], the record shows total luciferase, z-score -0.499.
DDX49 [SID160741921] showed total luciferase, z-score -0.885.
For DDX49 [SID160741924], the values are total luciferase, z-score 0.137.
GPATCH4 [SID160742353] gave total luciferase, z-score -2.11.
Depletion of GPATCH4 [SID160742354] came out at: total luciferase, z-score 0.338.
For GPATCH4 [SID160742355], the entry reads total luciferase, z-score 0.475.
Silencing of STH [SID160724939] resulted in: total luciferase, z-score 0.788.
For STH [SID160732794] the deposit lists total luciferase, z-score -1.42.
STH [SID160762023] showed total luciferase, z-score 0.295.
NXF5 [SID160744715] gave total luciferase, z-score 1.15.
NXF5 [SID160744716] showed total luciferase, z-score 1.72.
NXF5 [SID160744717] showed total luciferase, z-score -0.636.
Against ODAD3 [SID160755297] the deposit lists total luciferase, z-score -0.825.
ODAD3 [SID160755298] scored total luciferase, z-score -0.539.
After knock-down of ODAD3 [SID160755299], the record shows total luciferase, z-score -0.171.
Against TRIM16 [SID160728892], the entry reads total luciferase, z-score 0.14.
After knock-down of TRIM16 [SID160728893], the record shows total luciferase, z-score 0.635.
For TRIM16 [SID160728894], the entry reads total luciferase, z-score -0.121.

Reformatted: results already given.
ATP1A3 [SID160721345]
- total luciferase, z-score: 0.686

ATP1A3 [SID160721356]
- total luciferase, z-score: -0.823
